± gives the standard deviation of the averaged measurements. Most values lie at the floor of the assay. Slopes are relative: functional sequences can read slightly below zero.
System: Saccharomyces cerevisiae PS128 hsf1 delta, HSF1(1-493) fusion
Experiment: growth estimate (transactivation domain function in HSF1 fusion, heat-shock survival) (a.u. (slope of normalised read count over time)); higher = stronger growth at 37°C, i.e. more transactivation activity
Conditions: library: random library

| Substance | growth estimate |
| --- | --- |
| TPSSHIIFSENHSPNMFLVA | < -0.25 |
| TPT | < -0.25 |
| TPTEKYNHWGEQPHGFCHWG | < -0.25 |
| TPTILEKVPIK | < -0.25 |
| TPVHGVRPEGTLRRDSYCDR | < -0.25 |
| TPVLGH | -0.245 |
| TPVLTDTRQMLEGAQTAGSA | < -0.25 |
| TQAGASVSNDTSYSK | < -0.25 |
| TQARDTPILLTGERLLDHVG | < -0.25 |
| TQDGRDGRCLRIRRCPQGSQ | < -0.25 |
| TQEEDAVPYGRSAGARG | < -0.25 |
| TQENWSGGSLDTTRP | < -0.25 |
| TQGIYVRGH | < -0.25 |
| TQIIFGNILFTDHALHRFRG | < -0.25 |
| TQIINLVPPIGLVTRN | < -0.25 |
| TQLS | < -0.25 |
| TQMVRIEGVSVRGTVP | < -0.25 |
| TQPRQSGRLGLIWDRVSGGD | < -0.25 |
| TQQFGNPSAGCHLAGQWKTI | < -0.25 |
| TQRANVAGSQGLRTRAKGVK | < -0.25 |
| TQRHGNHGHVYVVN | < -0.25 |
| TQRQGVVLALMC | < -0.25 |
| TQRVSTVL | < -0.25 |
| TQSAKLSDGRQAGKNTILEL | -0.246 |
| TQSDAIRVHAVQTSADSPLH | < -0.25 |
| TQSRMPTCKRGQSRKLT | < -0.25 |

5 consecutive records from above:

| Substance | growth estimate |
| --- | --- |
| TPT | < -0.25 |
| TPTEKYNHWGEQPHGFCHWG | < -0.25 |
| TPTILEKVPIK | < -0.25 |
| TPVHGVRPEGTLRRDSYCDR | < -0.25 |
| TPVLGH | -0.245 |

(cont.)

| Substance | growth estimate |
| --- | --- |
| TQSWRQTTRCISFMLAVGGG | < -0.25 |
| TQVGRRIGRLTRFGCELNII | < -0.25 |
| TQWEHEESLFDIFMTMVMGG | < -0.25 |
| TQYKRMTAGFLGSRSCYTQQ | < -0.25 |
| TRA | -0.248 ± 0.0039 |
| TRAAILVTLLLLFR | < -0.25 |
| TRAGQFVGRSGLRHRGLPVL | < -0.25 |
| TRAS | < -0.25 |
| TRASARVRVSE | < -0.25 |
| TRASVDEVAKHRSKSSGPPA | < -0.25 |
| TRATC | < -0.25 |
| TRCLATSVRLEVFMRIGGR | < -0.25 |
| TRCYQFPWWDSHGRVLTRV | < -0.25 |
| TRDFVPSECYVVNRSLLSFM | < -0.25 |
| TRDLMVCKGAVR | < -0.25 |
| TRDVIYS | < -0.25 |
| TRDVLVEPPDAISIVAQPVH | < -0.25 |
| TRELSV | < -0.25 |
| TREMPQCTWKRTAILSTGNV | < -0.25 |
| TRFRDLEGYGLRI | < -0.25 |
| TRGESQIQVSGVYGCESVQA | -0.246 |
| TRGF | < -0.25 |
| TRGHAPGLF | < -0.25 |
| TRGI | < -0.25 |
| TRGIRPRLWAKADVGYFLLL | < -0.25 |
| TRGLLCWADGRGL | < -0.25 |

| Substance | growth estimate |
| --- | --- |
| TRGP | < -0.25 |
| TRGQRTSLYSSGRHHGCRS | < -0.25 |
| TRGRL | < -0.25 |
| TRGSEAR | < -0.25 |
| TRGYGNAGAHHSGQSVGGTD | < -0.253 |
| TRGYISRRF | < -0.25 |
| TRIGGSF | < -0.25 |
| TRKGCFETALFSIGGNPANQ | < -0.25 |
| TRKGSTDNSALRLCRSIRTT | < -0.25 |
| TRKIIPDPRRIHVQMVTHAT | < -0.25 |
| TRKLGSEFGFD | < -0.25 |
| TRKRTATSMDVSAAGGRASG | < -0.25 |
| TRKTGLDSMTALLEHIISAV | < -0.25 |
| TRLANTRQSRLQ | < -0.25 |
| TRLARIVQFNGIATHDLAWA | < -0.25 |
| TRLDIFWVLTV | < -0.25 |
| TRLEDTIRVRASGKL | < -0.25 |
| TRLLSIKGVKWFIRDGKERT | < -0.25 |
| TRLQRSKHDLA | < -0.25 |
| TRLSDQLACGKQSSKPPRYP | < -0.25 |
| TRLSSREP | < -0.25 |
| TRLVGRSIPVLNFFYPLGSF | < -0.25 |
| TRMRGLRRHPWEHPDDGLRG | < -0.25 |
| TRPEDRINPLDEGPLRNIVG | < -0.25 |
| TRPFADGR | < -0.25 |
| TRPQVKSTG | < -0.25 |

| Substance | growth estimate |
| --- | --- |
| TRPVRIVLLKG | < -0.25 |
| TRRAIFVELALGCSYSPR | < -0.25 |
| TRRRFRIYAPRFILTVRPTV | < -0.25 |
| TRRRNF | < -0.25 |
| TRRTGMCSVPGSCVRATPGR | < -0.25 |
| TRRTWIAEAKSAHEIYLTVG | < -0.25 |
| TRRYRPAAGRRFRVCLKMRH | < -0.25 |
| TRSDASAEV | < -0.25 |
| TRSDGPGPSSDSPESHSWRS | < -0.25 |
| TRSGCWYSI | < -0.25 |
| TRSGGSIFLVMRGRGFDGNC | < -0.25 |
| TRSVY | < -0.25 |
| TRSWGNSGR | < -0.25 |
| TRTKLADTLPSARVSRHGDH | < -0.25 |
| TRTVKSY | < -0.25 |
| TRTWTVCVVSILGVRFRPQI | < -0.25 |
| TRV | < -0.25 |
| TRVAQLSLM | -0.231 |
| TRVVAGIYTGESGPSLLSER | < -0.25 |
| TRWFFKRSARTLHTSPTGHG | < -0.25 |
| TRWPDSFRYRLVGRIQPRRY | < -0.25 |
| TRWVRQSHLMGQIGLRCT | < -0.25 |
| TRYNVLTTTR | < -0.25 |
| TRYQTLLEVIE | < -0.25 |
| TSAGVGLLNVGALPDGIDHA | < -0.25 |
| TSAGVLRIVRPKVSFYKGNE | < -0.25 |

| Substance | growth estimate |
| --- | --- |
| TSARYRIQTGRFSAVCIRLR | < -0.25 |
| TSASTARCGWIVTRSCHRGG | < -0.25 |
| TSAWMHRGIEEKRPVVC | < -0.25 |
| TSCQ | < -0.25 |
| TSD | < -0.25 |
| TSDWWERVRSRYSNP | < -0.25 |
| TSEPLLEAAESGDKVSWCGP | < -0.25 |
| TSFIY | < -0.25 |
| TSG | -0.246 |
| TSGCRDL | < -0.25 |
| TSGDWASY | < -0.25 |
| TSGHGEQTVVAVANIMI | < -0.25 |
| TSHCKIADSSGPRFSVRLIG | < -0.25 |
| TSI | < -0.25 |
| TSIIGRSLAIKEKGLLRVCT | < -0.25 |
| TSLGPSLATGV | < -0.25 |
| TSLSV | < -0.25 |
| TSLTFILS | < -0.25 |
| TSMGFLLGLSPRS | < -0.25 |
| TSMKLGSGSTFSFCSYGVVT | < -0.25 |
| TSMNAPTRHF | < -0.25 |
| TSNSLFHQ | < -0.25 |
| TSNYKGYWYEHRPVLRFAGQ | < -0.25 |
| TSPDQVHSPMRVV | < -0.25 |
| TSPFVS | < -0.25 |
| TSPPDSGKSRGIGFLI | < -0.25 |

Looked up one by one from above (three):

| Substance | growth estimate |
| --- | --- |
| TSFIY | < -0.25 |
| TSIIGRSLAIKEKGLLRVCT | < -0.25 |
| TSNSLFHQ | < -0.25 |

Continuation.

| Substance | growth estimate |
| --- | --- |
| TSRDRIFGPSITFNR | < -0.25 |
| TSRGVGISLSCAHATIHMTL | < -0.25 |
| TSRIAREPRCGS | < -0.25 |
| TSRIWSTGMRPARESVLVLS | < -0.25 |
| TSRPLASAN | < -0.25 |
| TSRQAPRFAPH | < -0.25 |
| TSRRCVLGLECSRRIPRVRS | < -0.25 |
| TSRWWSKGRESRSVSQRYQV | < -0.25 |
| TSSGSH | < -0.25 |
| TSSILGGAKIQEKHNSCNHP | < -0.25 |
| TSSKF | < -0.25 |
| TSSKHLWFIEARFVGT | < -0.25 |
| TSSNSHKDVGRLSPAVELSV | < -0.25 |
| TSSSLERARMSGRRTPDVEE | < -0.25 |
| TST | < -0.25 |
| TSTEAAGYFSLSVFKLGYRH | < -0.25 |
| TSTGAIGAPVEFLVMINGGI | < -0.25 |
| TSTLEVWAKNRNISN | < -0.25 |
| TSTVRRYGDG | < -0.25 |
| TSVIDQMAYAS | < -0.25 |
| TSYTLA | < -0.25 |
| TTAKMSSKPAPRGLNYTSCP | -0.246 |
| TTC | < -0.25 |
| TTCIDR | < -0.25 |
| TTCSLHKSAEGHRA | < -0.25 |
| TTD | < -0.25 |

| Substance | growth estimate |
| --- | --- |
| TTFRRSSLFLLSDC | < -0.25 |
| TTGDGRLV | < -0.25 |
| TTGEGAMDVWADVTNPG | -0.243 |
| TTGRSLVRATFVSS | < -0.25 |
| TTHLSEE | < -0.25 |
| TTHRGDNNDESDTSHVLASV | < -0.25 |
| TTHTSGTIGPNSSTTPFRAF | < -0.25 |
| TTHWGTILAEDQQSIHCGYS | < -0.25 |
| TTINTSTVTCE | < -0.25 |
| TTIPLDHFITLWPGMAGRET | < -0.25 |
| TTKAAS | < -0.25 |
| TTKSR | < -0.25 |
| TTLTVWTLCHSKGPAPAASP | < -0.25 |
| TTNVISVGW | < -0.25 |
| TTPESTVRTSSGCE | < -0.25 |
| TTPHWLRLIVRA | < -0.25 |
| TTPPEYSSAGRSLPQILRDP | < -0.25 |
| TTPSARAPRGGFRFQ | < -0.25 |
| TTPSRF | < -0.25 |
| TTQHATVQGELLSTVPGWMC | < -0.25 |
| TTRFLRIHMCISHIRHWLQA | < -0.25 |
| TTRVNRINSASVKFGDVSRS | < -0.25 |
| TTSGWP | < -0.25 |
| TTSPHPKVHE | < -0.25 |
| TTSVSVKLTYIATGGQYFG | < -0.25 |
| TTTNV | < -0.25 |

| Substance | growth estimate |
| --- | --- |
| TTVPGVDSKHSRLTLPTRMC | < -0.25 |
| TVAAGM | < -0.25 |
| TVAIC | < -0.25 |
| TVALLQGSPSCLR | -0.192 |
| TVAVLMIKVRSHGPTV | < -0.25 |
| TVCAMPATSVVEWSVVSAMA | < -0.25 |
| TVCGRRPLPEV | < -0.25 |
| TVCSHLGPGNPHFSAT | < -0.25 |
| TVDHANVNASRCVSRASLMC | < -0.25 |
| TVEGNECVVLDVWHRYPSWC | < -0.25 |
| TVEKPITWVLDEK | < -0.25 |
| TVFDVLRRYSP | < -0.25 |
| TVFERSERNASTVKSVALSP | < -0.25 |
| TVFTYPGLQTSESSLFEMSC | < -0.25 |
| TVGGSAQWCEHCSRGCGNIA | < -0.25 |
| TVGHNMLGSVDRECPGAIRY | < -0.25 |
| TVGRDVFTFVFVVPRTPPSE | < -0.25 |
| TVGRKMTRKPRERDRRLYYE | < -0.25 |
| TVHRVILASGRK | < -0.25 |

From the supplement of paper PMC5949888
